Assay results: PubChem BioAssay AID504842 (National Center for Advancing Translational Sciences (NCATS), 2011)
The campaign covered roughly 330,000 compounds. About 100 (0.03%) were called active. The inconclusive results got no clear call from the source; some entries with a clear call stand among them for comparison. The call rests on the fitted dose curve; in most records, active means well fitted inhibition curve with a large enough effect; inconclusive means small, poorly fitted or top-dose-only effect; inactive means flat fitted curve, though single readings scatter. Where the call is inconclusive, the potency comes from a doubtful curve fit.

Tested on: Chaperonin Mm-Cpn (Methanococcus maripaludis)
Assay: Inhibitors of TCP-1 ring complex (TRiC) of Methanococcus maripaludis (MmCpn): qHTS; further: nearly all actives have a fitted effect of over 80% in size;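 on potency: enzyme at 25 nM with ATP substrate at 10 µM during the reaction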
Details: purified Mm-Cpn ATPase, ADP Transcreener TR-FRET; activity, negative = inhibition: at the top concentration
Description: The eukaryotic chaperonin TRiC (for TCP-1 ring complex) is an essential and conserved chaperone required for the folding and activation of 10-15% of the proteins encoded by the human genome. […] The TRiC complex consist of two stacked 7-9 membered rings, each containing a central cavity. Substrates are folded within the cavity in an ATP-dependent manner. TRiC is a complex of eight different, essential proteins. As each of the genes encoding the eight subunits is essential for cell viability and no protocol has been developed to over-express this enzyme to high levels. That is why several groups studying the TRiC chaperonin have turned to the archaeal homolog of TRiC, Methanococcus maripaludis (Mm-CPN), and have used this enzyme as a model system for the study of the type II chaperonin family. Small molecule inhibitors of the Mm-CPN enzyme would be extremely useful to study the mechanism of chaperonin activity. Importantly, TRiC and Mm-CPN both require ATP hydrolysis for function. Furthermore, the ATP binding sites are highly conserved among these type II chaperonins. This provides us with an easy, well tested and straightforward assay to identify inhibitors of chaperonin activity. The Mm-CPN assay was developed in 1536-well plate format using the HTRF Transcreener ADP assay kit (Cisbio, Bedford, MA). This assay applied the time resolved fluorescence resonance energy transfer (TR-FRET) principle. ATP in the presence of Mm-CPN is converted to ADP + Pi. An antibody labeled with Eu3+-Cryptate specific and bound to ADP labeled with […] (d2) competes with the unlabeled ADP generated by Mm-CPN. The resulting TR-FRET signal is inversely proportional to the concentration of ADP in the sample. In this assay a reduction in TR-FRET signal is observed with ATP turnover. NIH Chemical Genomics Center [NCGC] NIH Molecular Libraries Probe Centers Network [MLPCN] MLPCN Grant: DA030554-01A1 Assay Submitter (PI): Judith Frydman, Stanford University
Purified Mm-CPN was supplied by the laboratory of Dr. Judith Frydman. Protein samples were stored at -80C as single use aliquots. Protein was thawed in ambient temperature water bath and placed on ice once thawed. Buffer was prepared fresh day of screen. The buffer composition below was used to prepare the working solution of the Mm-CPN protein and ATP substrate. The buffer is comprised of 30 mM TRIS pH 7.4, 100mM KCl, 5mM MgCl2, and 1mM DTT. A final concentration of 25nM Mm-CPN and 10uM ATP per well were used in the screen. Instructions according to the manufacturer were followed for the ADP Transcreener kit. Used 1536 well Greiner white, medium binding (MB), solid bottom plates. Plates were read on the PerkinElmer EnVision plate reader using Excitation = 320 nm and Emission = […], 665 nm. Protocol- 1.Dispense 1.5ul per well of working [Mm-CPN] = 50nM (or 75 ng / well) 2.Spin plate at 1000 rpm for 30 seconds 3.23nl of compound transferred per well 4.Incubate at 37degC for 10 minutes 5.Dispense 1.5ul per well of working [ATP] = 20uM 6.Incubate at 37degC for 30 minutes 7.Dispense 3ul per well of Anti-ADP Cryptate / ADP-d2 mix (prepared as instructed by Cisbio) 8.Incubate at ambient for 30 minutes 9.Read using EnVision
On the % scale 0 is the no-effect control and ±100 the full control effect; potency means the concentration at half of the fitted maximal effect.

SMILES | Potency | activity, negative = inhibition
O=C1NC2(CCCCC2)C(=O)N1/N=C/c1ccccc1Br | inconclusive: 14.1 µM [inhibitor, single point] | 
CCN1CCc2nc(NC(=O)CC(c3ccccc3)c3ccccc3)sc2C1 | inconclusive: 100 µM [inhibitor, partial curve, poor fit] | 
O=C(Nc1ccc2c(c1)OCCO2)C1CCCN1S(=O)(=O)c1cccc2cccnc12 (configuration not stated) | inconclusive: 89.1 µM [inhibitor, single point] | 
CCCN1C(=O)SC(CC(=O)Nc2ccccc2)C1=O (configuration not stated) |  | inactive: -0.0587%
CC(/C=C/c1ccco1)=N\NC(=O)c1cc(Cl)ccc1O |  | inactive: 0.715%
Cc1c(NC(=O)CSc2ccc(Cl)cc2)cccc1-c1nc2ncccc2o1 | inconclusive: 11.2 µM [inhibitor, single point] | 
C1=CC2c3ccccc3NC(c3ccncc3)C2C1 (configuration not stated) |  | inactive: -1.37%
COc1cc(OC)cc(-c2c(-c3ccc(F)cc3)c3cc(-c4cccc5[nH]ccc45)ccc3n2C)c1 | inconclusive: 126 µM [inhibitor, partial curve] | 
CC1CCc2sc(C(=O)OCC(=O)NCc3ccc(F)cc3)cc2C1 (configuration not stated) | inconclusive: 79.4 µM [inhibitor, single point] | 
CCN1/C(=C\C(=S)Nc2ccccc2)Sc2ccccc21 | inconclusive: 112 µM [inhibitor, single point] | 
CCc1nc(NCCN)c(C#N)c2c1CSC(C)(C)C2 | inconclusive: 14.1 µM [inhibitor, single point] | 
CCCC(=O)n1nc(-c2ccccc2)nc1SC |  | inactive: 2%
Cc1nc([N+](=O)[O-])cn1CC(=O)Nc1ccc2c(c1)OCO2 | inconclusive: 8.91 µM [inhibitor, single point] | 
O=c1[nH]cnc2nc(-c3ccccc3)c(-c3ccccc3)nc12 |  | inactive: -2.59%
COc1ccc(C2CC(c3cccc(Cl)c3)n3nc(N)nc3N2)cc1 (configuration not stated) | inconclusive: 100 µM [inhibitor, single point] | 
COc1cccc(N=Nc2ccc3cccnc3c2O)c1 | inconclusive: 100 µM [inhibitor, partial curve, poor fit] | 
COc1cccc(-c2csc(N3CCN(C(=S)Nc4cccc(Cl)c4)CC3)n2)c1 | inconclusive: 89.1 µM [inhibitor, single point] | 
Cc1ccc(-c2nc(C#N)c(NCc3cccc4c3OCO4)o2)cc1 |  | inactive: -7.23%
O=C1CNC(=O)/C1=C\N1CCN(C(c2ccccc2)c2ccccc2)CC1 |  | inactive: 2.71%
CCC1(C)Cc2c(C#N)c(N)sc(=S)c2CO1 (configuration not stated) | inconclusive: 200 µM [inhibitor, partial curve, poor fit] | 
CCOCCCNC(=O)c1c(N)n(-c2ccc(S(N)(=O)=O)cc2)c2nc3ccccc3nc12 | inconclusive: 100 µM [inhibitor, single point] | 
COc1ccc2cc(C(=O)N3CCC(Cc4ccccc4)CC3)[nH]c2c1 | inconclusive: 63.1 µM [inhibitor, single point] | 
Nc1nnc(CC(=O)N/N=C/c2ccc(-c3cccc(C(=O)O)c3)o2)s1 |  | inactive: 1.25%
Cc1cccc(NC(=O)c2ccccc2OCC(=O)c2ccccc2)c1 |  | inactive: 0.578%

SMILES | Potency | activity, negative = inhibition
COc1ccc(C)cc1NC(=S)N1CC(C)OC(C)C1 (configuration not stated) |  | inactive: -1.97%
CCC(C)NC(=O)Cn1c(=O)n(CCCCCC(=O)Nc2ccccc2)c(=O)c2sccc21 (configuration not stated) | inconclusive: 100 µM [inhibitor, single point] | 
Cc1ccnc(N2CCC(C(=O)NCc3ccc(F)cc3)CC2)n1 | inconclusive: 10 µM [inhibitor, single point] | 
S=C(Nc1cccc(Cl)c1)Nc1cccc2cnccc12 |  | inactive: -0.412%
Cc1sc2ncnc(Sc3ccccc3C(=O)Nc3ccc(Br)cc3)c2c1C | inconclusive: 398 µM [inhibitor, partial curve, poor fit] | 
Cc1cc2c(s1)c(C#N)c(C(=O)NCc1ccccc1F)n2C |  | inactive: -5.79%
O=C(NCc1cccnc1)C1c2ccccc2C(=O)N1Cc1ccco1 (configuration not stated) | inconclusive: 15.8 µM [inhibitor, single point] | 
O=C(O)CSc1nnc(-c2ccncc2)n1C1CCCCC1 | inconclusive: 70.8 µM [inhibitor, single point] | 
Cc1cccc2c1OCC/C2=N\NC(=O)COc1ccccc1 |  | inactive: 1.22%
CCn1c(=O)n(CC(=O)N2CCN(c3ccccc3F)CC2)c(=O)c2ccccc21 | inconclusive: 25.1 µM [inhibitor, single point] | 
Cc1cc(C(=O)CSc2ncccn2)c(C)n1Cc1ccco1 |  | inactive: 0.842%
C[C@H](NC(=O)[C@@H]1Cc2ccccc2CN1)C(=O)Nc1ccc2c(c1)OCCO2 | inconclusive: 63.1 µM [inhibitor, single point] | 
CCn1c2ccccc2c2cc(NC(=O)c3cc(OC)cc(OC)c3)ccc21 | inconclusive: 25.1 µM [inhibitor, single point] | 
Cn1ncc2c1ncn1nc(COc3ccc4ccccc4c3)nc21 | inconclusive: 89.1 µM [inhibitor, single point] | 
CCN1CCN(c2cc(C)c3cc(NC(=S)N(C)Cc4ccccc4)ccc3n2)CC1 | inconclusive: 20 µM [inhibitor, single point] | 
CCCn1nnnc1SCC(=O)c1ccc2c(c1)OCCO2 | inconclusive: 224 µM [inhibitor, partial curve, poor fit] | 
O=C(NCc1ccc(Cl)cc1)c1ccc2nc[nH]c2c1 |  | inactive: 0.875%
CCOc1ccc(/C(O)=C2/C(=O)C(=O)N(c3ccccn3)C2c2ccc(C)cc2)c(C)c1 (configuration not stated) | inconclusive: 112 µM [inhibitor, partial curve, poor fit] | 
CCOC(=O)C(C)N1C(=O)S/C(=C/c2cc(C)n(-c3ccccn3)c2C)C1=O (configuration not stated) |  | inactive: 0.361%
CCN1CCN(C(c2ccc(OC)cc2)c2nnnn2Cc2ccc3c(c2)OCO3)CC1 (configuration not stated) | inconclusive: 17.8 µM [inhibitor, single point] | 
COc1ccc(NC(=O)c2ccc(-c3ccc(-c4noc(C)n4)cc3C)cc2)cc1N1CCN(C)CC1 |  | inactive: 1.2%
O=c1c(Br)c(Br)cnn1-c1ccccc1 | inconclusive: 200 µM [inhibitor, partial curve, poor fit] | 
O=C(COC(=O)CCC(=O)c1ccc(F)cc1)Nc1ccc(N2CCOCC2)cc1 | inconclusive: 224 µM [inhibitor, partial curve, poor fit] | 
COc1ccc(Cn2nnnc2C(c2cc3cccc(C)c3[nH]c2=O)N2CCOCC2)cc1 (configuration not stated) | inconclusive: 100 µM [inhibitor, single point] | 

SMILES | Potency | activity, negative = inhibition
C/C(=N\OC(=O)c1ccc(Br)cc1)c1ccccn1 |  | inactive: 0.51%
CC1(C)CC(=O)c2c(O)cc(OCC(=O)Nc3ccc(CCO)cc3)cc2O1 |  | inactive: -2%
CCC(CC)C(=O)Nc1nnc(S(=O)(=O)N2CCc3ccccc32)s1 | inconclusive: 50.1 µM [inhibitor, single point] | 
CN(C)c1ccc(C=Nc2ccc(N(C)C)cc2)cc1 | inconclusive: 100 µM [inhibitor, single point] | 
Cc1cccnc1NC(=O)c1ccc(Cl)c(S(=O)(=O)N2CCCCCC2)c1 |  | inactive: -1.47%
CCCOc1ccc(C(=O)NC2CCSc3ccccc32)cc1 (configuration not stated) | inconclusive: 100 µM [inhibitor, single point] | 
Cc1cc(=O)oc2cc(NC(=O)CCC(=O)O)ccc12 | inconclusive: 63.1 µM [inhibitor, single point] | 
CCN1C(=O)[C@H]2[C@@H](c3ccc(-c4ccc(OC)cc4)cc3)N[C@@](Cc3ccccc3)(C(=O)OC)[C@H]2C1=O | inconclusive: 63.1 µM [inhibitor, single point] | 
CCc1ccc(NC(=O)CCn2c(=O)oc3ccccc32)cc1 | inconclusive: 20 µM [inhibitor, single point] | 
O=S(=O)(NCc1ccc2c(c1)OCO2)c1ccc2c(c1)oc1ccccc12 | inconclusive: 282 µM [inhibitor, partial curve, poor fit] | 
Cc1nc(NCCc2ccc(S(N)(=O)=O)cc2)c2c3c(sc2n1)CCC3 |  | inactive: -1.26%
COc1ccc(-c2cc(C(=O)Nc3c(F)cc(F)cc3Br)no2)cc1 | inconclusive: 22.4 µM [inhibitor, single point] | 
O=C(CSc1ncccn1)NCc1ccccc1Cl | inconclusive: 39.8 µM [inhibitor, single point] | 
Cc1ccc(C)c(CSc2nc3ccncc3n2CC(=O)Nc2ccc(C)c(C)c2)c1 | inconclusive: 14.1 µM [inhibitor, single point] | 
CC(C)NC(=O)CC(c1ccccc1)c1cc(Br)ccc1O (configuration not stated) |  | inactive: 1.7%
Nc1nc(NCc2c(F)cccc2Cl)nn1-c1ccccc1 |  | inactive: 0.326%
COc1ccc(/C=N/NC(=O)c2[nH]ncc2Br)c(OC)c1 | inconclusive: 22.4 µM [inhibitor, single point] | 
Cn1c(CS(=O)Cc2c(Cl)cccc2Cl)nnc1SCc1ccc(Cl)cc1 (configuration not stated) |  | inactive: 0.354%
COc1ccc([C@H]2CC(=O)C=C(c3ccc(-c4ccccc4)cc3)C2)cc1OC |  | inactive: -1.24%
Cc1ccccc1CC1(CO)CCCN(C(=O)c2cc(Cl)ccc2F)C1 (configuration not stated) | inconclusive: 355 µM [inhibitor, partial curve, poor fit] | 
Cn1c(CCNC(=O)c2ccc(Cl)c(Cl)c2)nnc1SCc1ccc(Cl)c(Cl)c1 |  | inactive: -1.39%
COc1ccc(C(=O)C(c2ccccc2)N2CCOCC2)cc1 (configuration not stated) |  | inactive: -0.354%
COc1ccc(C2C(C(C)=O)=C(O)C(=O)N2c2ccccn2)cc1 (configuration not stated) | inconclusive: 282 µM [inhibitor, partial curve, poor fit] | 
Nc1c(Cl)cc(-c2csc(N3CCCC3c3nc4cc(Cl)c(Cl)cc4n3CCOCCO)n2)cc1Cl (configuration not stated) | inconclusive: 100 µM [inhibitor, single point] | 

A different layout for three compounds above.
SMILES	Potency	activity, negative = inhibition
Cc1ccnc(N2CCC(C(=O)NCc3ccc(F)cc3)CC2)n1	inconclusive: 10 µM [inhibitor, single point]	
CCn1c2ccccc2c2cc(NC(=O)c3cc(OC)cc(OC)c3)ccc21	inconclusive: 25.1 µM [inhibitor, single point]	
COc1ccc(/C=N/NC(=O)c2[nH]ncc2Br)c(OC)c1	inconclusive: 22.4 µM [inhibitor, single point]	
